The results in this text go back to the supplement of paper PMC12067093, “Discovery and optimisation of a covalent ligand for TRIM25 and its application to targeted protein ubiquitination” (Chemical Science, 2025).

The other results are listed elsewhere or left out.
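Also: competitive chemoproteomic profiling in live THP-1 cells with an iodoacetamide desthiobiotin (IA-DTB) probe, comparing probe-labelled peptide intensities in compound-treated cells against DMSO-treated controls.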

Compound in this experiment: CC1Cc2ccccc2N1C(=O)C1CCCN(C1)C(=O)CCl (mixture of isomers) [TRIM25 ligand 11 (diastereomer mixture)]
The experiment can be described thus: probe-labelled cysteine peptide fold change vs DMSO (competition) (log2 fold change); higher = less target engagement (more negative = stronger competition). Particulars: 10 µM; THP-1; incubation time: 4 h.
Regarding “MIEN1_Q9BRT3_33_IVVEYCEPCGFEATYLELASAVK (UniProt Q9BRT3)”, the “probe-labelled cysteine peptide fold change” value is -0.0733. On to “MIF_P14174_60_ASVPDGFLSELTQQLAQATGKPPQYIAVHVVPDQLMAFGGSSEPCALCSLHSIGK (UniProt P14174)”, for which the “probe-labelled cysteine peptide fold change” value is -0.155. As for “MRC2_Q9UBG0_1107_SCTEETHGFICQK (UniProt Q9UBG0)”, the “probe-labelled cysteine peptide fold change” value is 0.0976. As to “MILR1_Q7Z6M3_110_AQVTSCSK (UniProt Q7Z6M3)”, the “probe-labelled cysteine peptide fold change” value worked out at 0.00658. The result for “MKI67_P46013_2206_ELFQTPICTDKPTTHEK (UniProt P46013)” reads -0.0325; that for “MOB4_Q9Y3A3_51_ADCSNIDK (UniProt Q9Y3A3)”, -0.0779. The result for “MPP1_Q00013_242_VASMAQSAPSEAPSCSPFGKK (UniProt Q00013)” reads -0.234.

With “MRPL37_Q9BZE1_203_ICVQNSTFSATWNR (UniProt Q9BZE1)”, the “probe-labelled cysteine peptide fold change” value is -0.00494. “MRPL37_Q9BZE1_104_DQACYIFHHR (UniProt Q9BZE1)”: the “probe-labelled cysteine peptide fold change” value stood at 0.0711. With “MRPL44_Q9H9J2_96_TAFVNSCYIK (UniProt Q9H9J2)”, the “probe-labelled cysteine peptide fold change” value is -0.0292.

For the target “MIB2_Q96AX9_969_ITCPICIDSHIR (UniProt Q96AX9)”, the “probe-labelled cysteine peptide fold change” value is -0.0725. “MMS19_Q96T76_819_YHPLSSCLTAR (UniProt Q96T76)”: the “probe-labelled cysteine peptide fold change” value is -0.168. On to “MILR1_Q7Z6M3_297_EESVPEVGSRPCVSTAQDEAK (UniProt Q7Z6M3)”, for which the “probe-labelled cysteine peptide fold change” value is -0.147. In the case of “MRPL28_Q13084_154_EDLCSK (UniProt Q13084)”, the “probe-labelled cysteine peptide fold change” value is 0.0603. On to “MON2_Q7Z3U7_592_AELTMAALCGR (UniProt Q7Z3U7)”, for which the “probe-labelled cysteine peptide fold change” value came to 0.00278. For “MON2_Q7Z3U7_1033_LGELCVDPR (UniProt Q7Z3U7)”, the “probe-labelled cysteine peptide fold change” value was -4.04e-05.
